{
  "source": "patent US11137396B2",
  "about": "“In vitro assays for assessing cell aging” (METAFORA BIOSYSTEMS, priority 2014, dated 2021)",
  "key": {"[1]": {"system": "hMSC derived from ES cells", "test": "XPR1/Glut1 ratio in anti-aging model induced by rapamycin (RBD labelling, flow cytometry)", "assay_type": "cell-based, human", "details": "0.1 or 10 nM rapamycin, three days after the treatment, control 0.03% DMSO, FIG. 5"}, "[2]": {"system": "human cells", "details": "described in the literature; cited from earlier work"}, "[3]": {"system": "mice", "details": "Wilkinson et al. 2012, Aging Cell 11, 675-682; cited from earlier work"}},
  "note": "At least one structure is not confirmed: it was looked up by name or label, or the drawing left a doubt.",
  "data": [
    {"smiles": "CO[C@H]1C[C@@H]2CC[C@@H](C)[C@@](O)(O2)C(=O)C(=O)N2CCCC[C@H]2C(=O)O[C@H]([C@H](C)C[C@@H]2CC[C@@H](O)[C@H](OC)C2)CC(=O)[C@H](C)/C=C(\\C)[C@@H](O)[C@@H](OC)C(=O)[C@H](C)C[C@H](C)/C=C/C=C/C=C/1C", "note": "[Rapamycin]", "values": [
      {"measurement": "XPR1/Glut1 ratio normalized to the control condition", "setting": "[1]", "result": "decreases the XPR1/Glut1 ratio in a dose-dependant manner"},
      {"measurement": "effect on in vitro cellular senescence", "setting": "[2]", "result": "preventing in vitro cellular senescence in human cells"},
      {"measurement": "effect on aging", "setting": "[3]", "result": "slow aging in mice"}
    ]}
  ]
}
